According to the supplement of paper PMC4604168 (melanoma cell lines):
The list shows a part of the results. Repeats are few or missing, and single values can be far off.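 The apoptosis fraction was the count of cleaved-PARP antibody-stained nuclei relative to all DNA-stained nuclei, imaged in 1,536-well plates. Screening doses were set so most cells survived, and baseline and induced cleaved-PARP levels vary greatly across cell lines.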

Experiments:
Experiment in all cases: cleaved PARP positive nuclei fraction relative to DMSO control; melanoma cells; higher = more apoptosis
Details in all cases: library dose: low library concentration; 72 h
[1] = tested on: CBRC034 (line from a melanoma biopsy)
[2] = tested on: COLO792
[3] = tested on: COLO800
[4] = tested on: COLO829
[5] = tested on: G361
[6] = tested on: IPC-298
[7] = tested on: IST-MEL1
[8] = tested on: LB2518-MEL
[9] = tested on: LOXIMVI

Structure (SMILES) | cleaved PARP positive nuclei fraction [1] [%] | cleaved PARP positive nuclei fraction [2] [%] | cleaved PARP positive nuclei fraction [3] [%] | cleaved PARP positive nuclei fraction [4] [%] | cleaved PARP positive nuclei fraction [5] [%] | cleaved PARP positive nuclei fraction [6] [%] | cleaved PARP positive nuclei fraction [7] [%] | cleaved PARP positive nuclei fraction [8] [%] | cleaved PARP positive nuclei fraction [9] [%]
Oc1nc(-c2ccc(C(F)(F)F)cc2)nc2c1CSCC2 + COc1cc(N2CCC(N3CCN(C)CC3)CC2)ccc1Nc1ncc(Cl)c(Nc2ccccc2S(=O)(=O)C(C)C)n1 [NVP-TAE684] (first compound 2 µM, partner dose 0.08 µM) | 93.1 | 42.4 | 91.2 | 185 | 63.2 | 112 | 85.8 | 245 | 50.8
CCc1ccc(CCOc2ccc(CC3SC(=O)NC3=O)cc2)nc1 (stereo not drawn) [pioglitazone] + COc1ccc2c(c1)CCC1C2CCC2(C)C(NCCCCCCN3C(=O)C=CC3=O)CCC12 [U73122] (first compound 2 µM, partner dose 0.4 µM) | 100 | 202 | 98.9 | 65 | 204 | 43.9 | 29.6 | 140 | 90.8
CN(C)S(=O)(=O)c1ccc2c(c1)/C(=C/c1cc3c([nH]1)CCCC3)C(=O)N2 + O=C(O)C(=O)Nc1sc2c(c1C(=O)O)CCNC2 [TCS401] (first compound 0.4 µM, partner dose 1.66667 µM) | 39.1 | 118 | 113 | 65.4 | 98.5 | 113 | 231 | 113 | 44.7
O=S(=O)(c1ccccc1)N(CC(F)(F)F)c1ccc(C(O)(C(F)(F)F)C(F)(F)F)cc1 + COc1cc2ncnc(Nc3ccc(Oc4ccccc4)cc3)c2cc1OC [SrcI1] (first compound 1.4 µM, partner dose 2 µM) | 81 | 101 | 128 | 71.4 | 107 | 87.6 | 125 | 209 | 67.1
N#Cc1c(O)c2c(-c3ccc(-c4ccccc4O)cc3)csc2[nH]c1=O + COc1cc(N2CCC(N3CCN(C)CC3)CC2)ccc1Nc1ncc(Cl)c(Nc2ccccc2S(=O)(=O)C(C)C)n1 [NVP-TAE684] (first compound 2 µM, partner dose 0.08 µM) | 85.3 | 159 | 96.6 | 122 | 67.1 | 111 | 56.5 | 39.6 | 60
COc1ccc(COc2ccc(Cc3cnc(N)nc3N)cc2OC)cc1 + COc1cc2ncnc(Nc3ccc(Oc4ccccc4)cc3)c2cc1OC [SrcI1] (first compound 1 µM, partner dose 2 µM) | 73.8 | 121 | 83.6 | 64.5 | 90.7 | 115 | 68.3 | 146 | 60
CCN(CC)CCCCNc1ncc2cc(-c3cc(OC)cc(OC)c3)c(NC(=O)NC(C)(C)C)nc2n1 + CC(C)CCN1c2nc(Nc3cc(F)c(O)c(F)c3)ncc2N(C)C(=O)C1C [BID1870] (first compound 0.1 µM, partner dose 0.2 µM) | 29.7 | 105 | 51.5 | 47.2 | 61.1 | 56.9 | 35.3 | 90.5 | 11
O=C1NC(=O)/C(=C/c2ccc(-c3ccc(F)cc3O)o2)S1 + COc1cc(N2CCC(N3CCN(C)CC3)CC2)ccc1Nc1ncc(Cl)c(Nc2ccccc2S(=O)(=O)C(C)C)n1 [NVP-TAE684] (first compound 1 µM, partner dose 0.08 µM) | 166 | 86 | 121 | 129 | 90.1 | 112 | 145 | 90.8 | 39.5
CN(C)S(=O)(=O)c1ccc2c(c1)/C(=C/c1cc3c([nH]1)CCCC3)C(=O)N2 + COc1ccc(COc2ccc(Cc3cnc(N)nc3N)cc2OC)cc1 [GW2580] (first compound 0.4 µM, partner dose 1 µM) | 92.5 | 136 | 133 | 119 | 145 | 81.6 | 85.9 | 83.1 | 27
CCc1ccc(CCOc2ccc(CC3SC(=O)NC3=O)cc2)nc1 (stereo not drawn) [pioglitazone] + CC(C)CCN1c2nc(Nc3cc(F)c(O)c(F)c3)ncc2N(C)C(=O)C1C [BID1870] (first compound 2 µM, partner dose 0.2 µM) | 105 | 76.8 | 106 | 74.9 | 77.8 | 174 | 49.9 | 90.3 | 34
COC(=O)c1sccc1S(=O)(=O)Nc1ccc(Nc2ccccc2)cc1OC + CCCCCCCCCCCC1=C(O)C(=O)C=C(O)C1=O [Embelin] (first compound 1 µM, partner dose 1.2 µM) | 77.8 | 130 | 104 | 83.6 | 105 | 53 | 44.2 | 100 | 49.7
COc1cc2c(Oc3ccc4[nH]c(C)cc4c3F)ncnc2cc1OCCCN1CCCC1 [cediranib] + CCN(CC)CCCCNc1ncc2cc(-c3cc(OC)cc(OC)c3)c(NC(=O)NC(C)(C)C)nc2n1 [PD173074] (first compound 0.4 µM, partner dose 0.1 µM) | 79.4 | 69.5 | 171 | 127 | 112 | 25.7 | 33.3 | 102 | 53.3
